The term inhibition denotes how much of the control response was suppressed.

Consider two compounds from PubChem BioAssay AID588778 (Southern Research Institute, 2011).

The list shows a part of the results.

The experiment is described as follows: Vibrio cholerae motility inhibitors, OD read-out (AID 588778). Particulars: measured here: bacterial viability at 10 ug/mL, stronger effect = higher value.
For `Cc1cccc(C(=O)OC2CN3CCC2CC3)c1` (configuration not stated), the inhibition stood at 0.51%.
Under `COc1ccc(OCC(=O)OC2CN3CCC2CC3)cc1` (configuration not stated) stands 20%.
